These results are taken from publication doi:10.1101/2023.09.13.557663.

By UniProt entry, the sequences of proteins in these tests, tags left out.
UniProt P51692: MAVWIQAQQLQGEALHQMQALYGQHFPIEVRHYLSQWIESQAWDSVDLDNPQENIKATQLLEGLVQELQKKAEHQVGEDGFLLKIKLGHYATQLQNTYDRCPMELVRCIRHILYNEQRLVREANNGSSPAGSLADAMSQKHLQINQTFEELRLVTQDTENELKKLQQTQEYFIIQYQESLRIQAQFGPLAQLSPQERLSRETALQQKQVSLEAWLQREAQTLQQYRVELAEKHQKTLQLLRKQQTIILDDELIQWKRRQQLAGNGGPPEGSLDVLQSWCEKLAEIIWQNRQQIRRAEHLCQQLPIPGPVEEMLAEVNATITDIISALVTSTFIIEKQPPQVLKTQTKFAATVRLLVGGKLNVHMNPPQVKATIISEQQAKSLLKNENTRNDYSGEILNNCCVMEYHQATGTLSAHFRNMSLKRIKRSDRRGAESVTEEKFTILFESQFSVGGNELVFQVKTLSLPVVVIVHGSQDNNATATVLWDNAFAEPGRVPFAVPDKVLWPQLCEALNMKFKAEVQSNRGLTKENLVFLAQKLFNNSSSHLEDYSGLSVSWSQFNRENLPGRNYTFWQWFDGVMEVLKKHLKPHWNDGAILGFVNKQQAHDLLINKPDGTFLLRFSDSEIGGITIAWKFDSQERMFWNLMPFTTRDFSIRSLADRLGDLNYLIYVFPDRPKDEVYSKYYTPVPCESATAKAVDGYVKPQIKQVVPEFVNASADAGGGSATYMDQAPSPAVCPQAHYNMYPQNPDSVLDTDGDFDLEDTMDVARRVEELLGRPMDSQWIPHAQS
UniProt Q01968: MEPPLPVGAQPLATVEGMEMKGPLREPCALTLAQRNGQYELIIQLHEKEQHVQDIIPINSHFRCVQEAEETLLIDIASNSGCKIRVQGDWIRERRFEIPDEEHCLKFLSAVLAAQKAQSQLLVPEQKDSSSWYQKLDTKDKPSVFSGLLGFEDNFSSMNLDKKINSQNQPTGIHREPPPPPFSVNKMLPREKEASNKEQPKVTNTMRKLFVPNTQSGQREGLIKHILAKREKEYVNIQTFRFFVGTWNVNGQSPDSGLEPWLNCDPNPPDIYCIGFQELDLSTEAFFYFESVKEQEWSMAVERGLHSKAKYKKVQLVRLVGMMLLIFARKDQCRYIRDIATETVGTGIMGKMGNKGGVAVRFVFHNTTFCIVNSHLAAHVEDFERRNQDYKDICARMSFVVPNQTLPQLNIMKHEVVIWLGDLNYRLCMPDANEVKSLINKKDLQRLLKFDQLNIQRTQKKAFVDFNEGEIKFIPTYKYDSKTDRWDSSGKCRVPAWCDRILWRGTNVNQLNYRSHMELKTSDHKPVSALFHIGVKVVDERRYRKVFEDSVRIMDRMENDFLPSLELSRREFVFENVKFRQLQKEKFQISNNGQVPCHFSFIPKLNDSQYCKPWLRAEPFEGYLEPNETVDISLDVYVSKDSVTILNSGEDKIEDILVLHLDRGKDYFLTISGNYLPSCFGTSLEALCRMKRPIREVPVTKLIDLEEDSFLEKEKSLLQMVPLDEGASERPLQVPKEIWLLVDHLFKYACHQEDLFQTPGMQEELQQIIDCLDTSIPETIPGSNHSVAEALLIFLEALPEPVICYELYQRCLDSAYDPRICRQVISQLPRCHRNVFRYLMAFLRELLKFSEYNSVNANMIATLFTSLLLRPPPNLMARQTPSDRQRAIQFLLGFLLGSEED
UniProt Q92783: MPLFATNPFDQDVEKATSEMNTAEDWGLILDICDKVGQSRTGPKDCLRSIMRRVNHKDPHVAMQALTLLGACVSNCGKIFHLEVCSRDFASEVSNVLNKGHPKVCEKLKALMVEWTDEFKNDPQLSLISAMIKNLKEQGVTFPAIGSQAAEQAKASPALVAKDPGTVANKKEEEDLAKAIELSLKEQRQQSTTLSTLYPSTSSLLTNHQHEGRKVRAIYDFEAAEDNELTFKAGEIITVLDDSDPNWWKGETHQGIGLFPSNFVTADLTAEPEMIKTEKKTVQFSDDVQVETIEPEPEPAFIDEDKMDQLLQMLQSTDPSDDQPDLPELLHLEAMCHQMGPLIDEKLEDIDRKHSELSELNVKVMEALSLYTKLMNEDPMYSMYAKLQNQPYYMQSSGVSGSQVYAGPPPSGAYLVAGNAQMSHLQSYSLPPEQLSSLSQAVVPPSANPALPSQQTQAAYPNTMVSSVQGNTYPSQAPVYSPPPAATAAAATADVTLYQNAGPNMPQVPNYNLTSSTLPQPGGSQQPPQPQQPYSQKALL
UniProt Q07912: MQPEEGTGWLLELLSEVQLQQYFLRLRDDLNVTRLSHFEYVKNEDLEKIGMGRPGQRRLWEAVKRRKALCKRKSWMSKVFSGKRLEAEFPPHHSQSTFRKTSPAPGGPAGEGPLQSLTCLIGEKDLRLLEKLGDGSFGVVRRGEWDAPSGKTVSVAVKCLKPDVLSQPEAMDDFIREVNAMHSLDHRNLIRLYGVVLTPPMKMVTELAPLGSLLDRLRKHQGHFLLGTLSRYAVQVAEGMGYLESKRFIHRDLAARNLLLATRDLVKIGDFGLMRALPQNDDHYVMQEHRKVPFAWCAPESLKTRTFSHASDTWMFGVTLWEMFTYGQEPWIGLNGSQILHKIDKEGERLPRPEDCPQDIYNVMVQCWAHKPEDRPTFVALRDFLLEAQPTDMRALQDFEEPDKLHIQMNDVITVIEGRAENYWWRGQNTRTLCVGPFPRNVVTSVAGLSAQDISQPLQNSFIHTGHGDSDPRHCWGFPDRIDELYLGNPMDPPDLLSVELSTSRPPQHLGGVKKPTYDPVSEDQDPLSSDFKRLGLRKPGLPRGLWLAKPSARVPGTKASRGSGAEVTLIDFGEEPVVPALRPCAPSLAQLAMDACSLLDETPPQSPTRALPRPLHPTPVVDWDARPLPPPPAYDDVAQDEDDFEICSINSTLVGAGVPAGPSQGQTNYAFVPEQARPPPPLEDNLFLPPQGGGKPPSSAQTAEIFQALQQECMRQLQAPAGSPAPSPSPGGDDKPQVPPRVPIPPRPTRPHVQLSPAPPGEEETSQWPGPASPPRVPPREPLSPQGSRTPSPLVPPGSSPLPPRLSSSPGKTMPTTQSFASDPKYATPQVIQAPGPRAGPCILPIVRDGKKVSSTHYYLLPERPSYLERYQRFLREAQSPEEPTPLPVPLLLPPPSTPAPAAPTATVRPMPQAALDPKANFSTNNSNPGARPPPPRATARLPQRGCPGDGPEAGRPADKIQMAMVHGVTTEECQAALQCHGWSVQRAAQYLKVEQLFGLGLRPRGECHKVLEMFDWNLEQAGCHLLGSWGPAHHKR

No constants are given. Whether binding was seen depends on the method and setting. Binding seen in cells or lysates may run through a third protein. These calls come from enrichment with a bait or labelling near it, and not all partners need be listed.

For this assay, the target named is EGFR-flag-TurboID (EGFR-TurboID fusion construct, HeLa clone T1) (UniProt P00533). Description: proximity labelling.
Regarding STAT5B (from UniProt P51692 1-787), the binding result is given as “binds”. For the substance “inositol polyphosphate 5-phosphatase OCRL (from UniProt Q01968 1-901)”, the binding entry is recorded as “binds”. In the case of HGS (from UniProt O14964 1-777), the binding entry is “binds”. Under STAM (from UniProt Q92783 1-540) stands “binds”; under “non-receptor tyrosine kinase TNK2 (from UniProt Q07912 1-1038)”, “binds”.
